The list shows only some results of the screen, not a fair sample: it gathers tests that were run many times, whatever their T/C, doses with no T/C, and many T/C values between a quarter and a half above the control. Further doses and runs are listed elsewhere. T/C gives the treated animals as a percentage of the vehicle group. Some entries give survivors of the animals treated and no T/C: the source files T/C as zero there, which appears to mark a toxic dose or a test without result, not a measured value. Some survivor counts are full or nearly so, which does not show that the dose was tolerated: the source hardly ever lists a survival T/C far under the control, and the zero likely stands for such cases as well. Survivors were counted at the toxicity check, usually on the fifth day, unless a day is given; later deaths do not show. Schedule codes are those of the source, read here as Q, the interval in days (D) or hours (H), X, the number of doses. Some doses were run more than once; the values are given in rising order. Where survival is the endpoint, this PubChem deposit counts one and a half times the control or more as active, and values a quarter to a half above the control carry no call in these data; other NCI protocols may use other cut-offs. Some T/C values are followed by the survivors on the day toxicity was checked, most often the fifth; without a count, all were alive then.
Test system: BDF1 mice, B16 melanoma ip, median survival T/C
Assay: NCI In Vivo Anticancer Drug Screen. Data for tumor model B16 Melanoma (intraperitoneal) in B6D2F1 (BDF1) mice
Conditions: T/C endpoint: median survival time, higher T/C = longer survival
In short: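 Transplantable tumor model; survival or tumor size measured; reported as T/C, treated over vehicle control.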

[1] = dose: 100.0 mg/kg/injection, schedule: Q01DX009 (ip), vehicle: Klucel (hydroxypropylcellulose) (HPC)
[2] = dose: 200.0 mg/kg/injection, schedule: Q01DX009 (ip), vehicle: Klucel (hydroxypropylcellulose) (HPC)
[3] = dose: 400.0 mg/kg/injection, schedule: Q01DX009 (ip), vehicle: Klucel (hydroxypropylcellulose) (HPC)
[4] = dose: 25.0 mg/kg/injection, schedule: Q01DX009 (ip), vehicle: saline with Tween-80
[5] = dose: 200.0 mg/kg/injection, schedule: Q01DX009 (ip), vehicle: saline with Tween-80
[6] = dose: 100.0 mg/kg/injection, schedule: Q01DX009 (ip), vehicle: saline with Tween-80
[7] = dose: 50.0 mg/kg/injection, schedule: Q01DX009 (ip), vehicle: saline with Tween-80
[8] = dose: 100.0 mg/kg/injection, schedule: Q01DX009 (ip), vehicle: saline
[9] = dose: 50.0 mg/kg/injection, schedule: Q01DX009 (ip), vehicle: saline
[10] = dose: 200.0 mg/kg/injection, schedule: Q01DX009 (ip), vehicle: saline
[11] = dose: 400.0 mg/kg/injection, schedule: Q01DX009 (ip), vehicle: saline
[12] = dose: 100.0 mg/kg/injection, schedule: Q04DX003 (ip), vehicle: Klucel (hydroxypropylcellulose) (HPC)

Cc1ccc(Cl)cc1NC(=O)COc1ccc(Cl)cc1
survivor count [1]: 10 of 10
survivor count [2]: 10 of 10
survivor count [3]: 9 of 10

CC1(C#N)CCc2c(ccc3ccccc23)C1=O (stereo unspecified)
survivor count (dose: 200.0 mg/kg/injection, schedule: Q04DX003 (ip), vehicle: other): 9 of 10
survivor count (dose: 200.0 mg/kg/injection, schedule: Q04DX003 (ip), vehicle: saline with Tween-80): 10 of 10

NCCN.[Ni+2].[O-]c1ccccc1[O-].[O-]c1ccccc1[O-]
survivor count [4]: 9 of 10

CC(C)c1ccc(C(O)C2CC2)cc1 (stereo unspecified)
survivor count [5]: 4 of 10

CCCCCCCCCCCCCCCCCCOC(=O)Cc1ccc(N(CCCl)CCCl)cc1
survivor count (dose: 400.0 mg/kg/injection, schedule: Q04DX003 (ip), vehicle: saline with Tween-80): 10 of 10
survivor count (dose: 600.0 mg/kg/injection, schedule: Q04DX003 (ip), vehicle: saline with Tween-80): 10 of 10

NC1c2cc(Cl)ccc2-c2c(Cl)cc(Cl)cc21 (stereo unspecified)
survivor count (dose: 800.0 mg/kg/injection, schedule: Q01DX009 (ip), vehicle: saline with Tween-80): 5 of 6

Cc1c(Cl)cccc1NC(=O)c1ccccc1C(=O)O
survivor count [3]: 9 of 10

CCOC(=O)C(C)C(=O)O (stereo unspecified)
survivor count [6]: 10 of 10
survivor count [5]: 10 of 10

O=C(Nc1ccccc1F)C(c1ccccc1)c1ccccc1
survivor count [1]: 10 of 10
survivor count [3]: 10 of 10

ClN=C(c1ccccc1)c1ccccc1
survivor count [1]: 7 of 10

COc1cc(NS(C)(=O)=O)ccc1Nc1c2ccc([N+](=O)[O-])cc2nc2c(C)cccc12
T/C (dose: 0.3 mg/kg/injection, schedule: Q01DX009 (ip), vehicle: saline with Tween-80): 126 [5 of 6 alive] and 127 % of control
T/C (dose: 1.2 mg/kg/injection, schedule: Q01DX009 (ip), vehicle: saline with Tween-80): 130 % of control

CS(=O)(=O)c1ccnc2ccccc12
survivor count [2]: 0 of 10
survivor count [3]: 0 of 10

CCC(C)C1NC(=O)C(NC(=O)c2c3nc4c(C(=O)NC5C(=O)NC(C(C)CC)C(=O)N6CCCC6C(=O)N(C)CC(=O)N(C)C(C(C)C)C(=O)OC5C)cc(N)c(C)c4oc-3c(C)c(=O)c2N)C(C)OC(=O)C(C(C)C)N(C)C(=O)CN(C)C(=O)C2CCCN2C1=O (stereo unspecified)
T/C (dose: 50.0 micrograms/kg/injection, schedule: Q01DX009 (ip), vehicle: water): 125 % of control
T/C (dose: 100.0 micrograms/kg/injection, schedule: Q01DX009 (ip), vehicle: water): 132 % of control
survivor count (dose: 178.0 micrograms/kg/injection, schedule: Q01DX009 (ip), vehicle: water): 10 of 10
T/C (dose: 200.0 micrograms/kg/injection, schedule: Q01DX009 (ip), vehicle: water): 145 % of control
survivor count (dose: 266.0 micrograms/kg/injection, schedule: Q01DX009 (ip), vehicle: water): 10 of 10
survivor count (dose: 400.0 micrograms/kg/injection, schedule: Q01DX009 (ip), vehicle: water): 10 of 10
survivor count (dose: 600.0 micrograms/kg/injection, schedule: Q01DX009 (ip), vehicle: water): 10 of 10

CC(C)c1ccc(O)c(O)c1
survivor count [7]: 10 of 10
survivor count [6]: 10 of 10
survivor count [8]: 10 of 10
survivor count [5]: 2 of 10

CN(C)CCOC(c1ccccc1)c1ccccc1
survivor count (dose: 25.0 mg/kg/injection, schedule: Q01DX009 (ip), vehicle: saline): 10 of 10
survivor count [9]: 10 of 10

Nc1ccc2nc3ccc(N)cc3[n+](-c3ccccc3)c2c1
survivor count (dose: 80.0 mg/kg/injection, schedule: Q04DX003 (ip), vehicle: saline with Tween-80): 0 of 10

NC1=NC(=O)N2CC12 (stereo unspecified)
survivor count [10]: 8 of 10
survivor count [11]: 3 of 10

CC(=O)Nc1c(Cl)c(Cl)c2c(c1Cl)Cc1cc(Br)ccc1-2
survivor count [4]: 6 of 6
survivor count [7]: 6 of 6

COc1c(Br)c2c(c(OC)c1OC)-c1ccc(OC)c(=O)cc1C(NC(C)=O)CC2 (stereo unspecified)
survivor count (dose: 6.0 mg/kg/injection, schedule: Q01DX009 (ip), vehicle: Klucel (hydroxypropylcellulose) (HPC)): 10 of 10

ClCC[N+]12CC[N+](CCCl)(CC1)C2 (tested in a mixture with another compound)
survivor count [11]: 10 of 10

COc1ccc(N=NN(C(C)=O)c2ccccc2)cc1
survivor count [3]: 9 of 10

C=CCOc1ccccc1Cl
T/C [12]: 125 % of control

COc1cc(CN(C)C2CCCCC2)cc(OC)c1OC
survivor count [10]: 0 of 10
survivor count [11]: 0 of 10

CC(C)C[CH2][Pb]([Cl])([CH2]CC(C)C)[CH2]CC(C)C
survivor count (dose: 0.25 mg/kg/injection, schedule: Q01DX009 (ip), vehicle: Klucel (hydroxypropylcellulose) (HPC)): 10 of 10

CC(C)(CO)C(O)C(=O)NNCc1ccccc1 (stereo unspecified)
survivor count [12]: 10 of 10

Cc1cccc(C)c1NC(=O)c1ccc(Cl)cc1Cl
survivor count [2]: 10 of 10
survivor count [3]: 10 of 10

CC(C)(C)CC(C)(C)c1ccc(O)c(O)c1
survivor count [7]: 10 of 10
survivor count [6]: 9 of 10

Cc1ccc(NC(=O)c2ccccc2)cc1[As]=[As]c1cc(NC(=O)c2ccccc2)ccc1C (stereo unspecified)
survivor count (dose: 0.6 mg/kg/injection, schedule: Q01DX009 (ip), vehicle: saline with Tween-80): 9 of 10
survivor count (dose: 0.62 mg/kg/injection, schedule: Q04DX003 (ip), vehicle: Klucel (hydroxypropylcellulose) (HPC)): 10 of 10
survivor count (dose: 1.25 mg/kg/injection, schedule: Q01DX009 (ip), vehicle: saline with Tween-80): 10 of 10
survivor count (dose: 1.25 mg/kg/injection, schedule: Q04DX003 (ip), vehicle: Klucel (hydroxypropylcellulose) (HPC)): 1 of 10 and 10 of 10
survivor count (dose: 1.25 mg/kg/injection, schedule: Q04DX003 (ip), vehicle: saline with Tween-80): 10 of 10
survivor count (dose: 2.5 mg/kg/injection, schedule: Q01DX009 (ip), vehicle: saline with Tween-80): 10 of 10
survivor count (dose: 2.5 mg/kg/injection, schedule: Q04DX003 (ip), vehicle: Klucel (hydroxypropylcellulose) (HPC)): 10 of 10
survivor count (dose: 2.5 mg/kg/injection, schedule: Q04DX003 (ip), vehicle: saline with Tween-80): 10 of 10
survivor count (dose: 5.0 mg/kg/injection, schedule: Q01DX009 (ip), vehicle: saline with Tween-80): 10 of 10
survivor count (dose: 5.0 mg/kg/injection, schedule: Q04DX003 (ip), vehicle: Klucel (hydroxypropylcellulose) (HPC)): 10 of 10
survivor count (dose: 5.0 mg/kg/injection, schedule: Q04DX003 (ip), vehicle: saline with Tween-80): 10 of 10
survivor count (dose: 10.0 mg/kg/injection, schedule: Q04DX003 (ip), vehicle: Klucel (hydroxypropylcellulose) (HPC)): 0 of 10
survivor count (dose: 10.0 mg/kg/injection, schedule: Q04DX003 (ip), vehicle: saline with Tween-80): 2 of 10 and 4 of 10

CCCCCC#CC(=O)OC
survivor count [7]: 9 of 10
survivor count [6]: 10 of 10
survivor count [5]: 10 of 10

CN(C)CC(C)(C)CN1c2ccccc2Sc2ccccc21
survivor count [9]: 10 of 10
survivor count [8]: 8 of 10

Cc1cccc(C)c1NC(=O)Nc1ccc(Cl)c(Cl)c1
survivor count (dose: 200.0 mg/kg/injection, schedule: Q01DX009 (ip), vehicle: other): 10 of 10
survivor count (dose: 400.0 mg/kg/injection, schedule: Q01DX009 (ip), vehicle: other): 10 of 10

Nc1ccccc1SC1CC(=O)N(c2cccc3ccccc23)C1=O (stereo unspecified)
survivor count (dose: 1.56 mg/kg/injection, schedule: Q01DX009 (ip), vehicle: Klucel (hydroxypropylcellulose) (HPC)): 10 of 10
survivor count (dose: 3.12 mg/kg/injection, schedule: Q01DX009 (ip), vehicle: Klucel (hydroxypropylcellulose) (HPC)): 10 of 10
survivor count (dose: 25.0 mg/kg/injection, schedule: Q01DX009 (ip), vehicle: Klucel (hydroxypropylcellulose) (HPC)): 10 of 10
survivor count (dose: 50.0 mg/kg/injection, schedule: Q01DX009 (ip), vehicle: Klucel (hydroxypropylcellulose) (HPC)): 10 of 10
survivor count [2]: 10 of 10
survivor count [3]: 8 of 10
